Results as given in patent publication US20050227296A1, “Method for indentifying integrin antagonists” (The General Hospital Corporation, a Massachusetts …, priority 1988, published 2005).
Several values for one entry are separate records, joined by “and”; a condition that tells them apart may be missing. Equal entries are not always repeated. At least one peptide structure holds a part that was inferred or is arguable (an end, a ring closure or a residue). Where a SMILES comes first, the peptide text is derived from it.

Tests used:
[1] = target: T1, biotinylated NIF binding to immobilized r11bA (Homo sapiens, UniProt P11215); assay: Inhibition of biotinylated NIF binding to immobilized r11bA
T1 construct: recombinant CD11b A domain (rCD11bA) and recombinant CD11a A domain (r11aA) were expressed as GST fusion proteins; GST (N); made in house; host or cells: Escherichia coli
Description: Immobilization of Recombinant Proteins and Polypeptide: Purified rA-domain preparations (1 μg/well), soluble CD54, human fibrinogen (Sigma Chemical Co., St. Loius, Mo.), gelatin (BioRad-Laboratories) or BSA (Calbiochem-Behring Corp.) (each at 10 μg/well) or selected A-domain-derived peptides (10 μg) were added to Immulon-2 96-well microtiter plates (Dynatech Labs, Chantilly, Va.) overnight. Quantitation of adsorbed wild-type and mutant A-domain and synthetic peptides was done using the mAb 44 in an ELISA, and the BCA kit (from Pierce Chemical Co., Rockford, Ill.), respectively. […]
Biotinylation of recombinant NIP and Measurement of Binding to Immobilized Peptides: Recombinant NIP was labeled with sulfo-NHS-biotin as described by the manufacturer (Pierce Chemical Co.). […] Wells were then washed, incubated with alkaline phosphatase-coupled avidin, washed again, developed with substrate and quantified colormetrically using a microplate reader. […] In experiments where the effects of divalent cations on biotinylated rNIF binding to immobilized rCD11b A-domain were measured, VBSG^−− buffer (veronal-buffered saline, pH=7.4, containing 0.1% gelatin) containing 1 mM of Ca^2+, Mg^2+, Mn^2+, EDTA, EGTA, EGTA plus 1 mM MgCl2, or 1 mM MnCl2. […]

[2] = target: T2, EAiC3b (erythrocytes coated with iC3b) (Homo sapiens, UniProt P01024); assay: Erythrocyte binding assay, EAiC3b on immobilized proteins or peptides
T2 construct: EAiC3b (erythrocytes coated with iC3b) were generated by treating EAC3b with purified human factors H and I; tissue Sigma Chemical Co. (C5-deficient human serum); host or cells: human serum C3 deposited on IgM-coated erythrocytes
Description: Erythrocytes (E) coated with rabbit anti-E IgM (EA) or C3b (EAC3b) were prepared as described by Dana et al. (J. Immunol. 73:153, 1984). EAiC3b (erythrocytes coated with iC3b) were generated by treating EAC3b with purified human factors H and I, or alternatively prepared from EA using C5-deficient human serum (Sigma Chemical Co., St. Louis, Mo.). EAiC3b cells were washed and stored in isotonic veronal-buffered saline (VBS^2+), pH 7.4, containing 0.15 mM calcium-1 mM magnesium (MgCl2+CaCl2) and 1 mg/ml Soybean Trypsin Inhibitor (STI; Worthington Biochemical Co., Freehold, N.J.) at 1.5×10^8 cells/ml. […]
Immobilization of recombinant proteins and peptides: Purified recombinant A-domain was added to Immulon-2 96-well microtiter plates (Dynatech) overnight. […] Binding of the anti-CD11b mabs to the coated rA-domain was measured by ELISA and read using a plate reader (Molecular Dynamics).
Erythrocyte binding assays: Fluoresceinated EAiC3b, EAC3b or EA were resuspended to 1.5×10^8/ml in buffer A, and added […] to wells containing immobilized proteins or peptides in a total volume of 100 ml. […] Fluorescence was quantified (excitatory wavelength, 490 nm, emission wavelength, 510 nm) using a SLM 8000 fluorometer (SLM Instruments, Urbana, Ill.). […] The effect of temperature was evaluated in the presence of 1 mM MnCl2 at 37° C. and at 4° C.

[3] = target: T3, EAiC3b binding to rCD11b A-domain (Homo sapiens, UniProt P01024); assay: Inhibition of EAiC3b binding to immobilized rA-domain
T3 construct: Purified recombinant A-domain was added to Immulon-2 96-well microtiter plates (Dynatech) overnight; EAiC3b (erythrocytes coated with iC3b) were generated by treating EAC3b with purified human factors H and I; GST (N); made in house; host or cells: A-domain from Escherichia coli; iC3b from human serum on erythrocytes

EAiC3b = target: T4, EAiC3b (Homo sapiens, UniProt P01024); assay: Flow cytometry, biotinylated peptide binding to EAiC3b
T4 construct: EAiC3b (erythrocytes coated with iC3b) were generated by treating EAC3b with purified human factors H and I; tissue Sigma Chemical Co. (C5-deficient human serum); host or cells: human serum C3 deposited on IgM-coated erythrocytes

[4] = target: CR3 (CD11b/CD18) expressed by normal human neutrophils (Homo sapiens, UniProt P11215); assay: EAiC3b binding to adherent neutrophils (CR3); format: cell-based
Description: Purification and adherence of human neutrophils: Neutrophils were purified as described by Boyum et al. (Scand. J. Clin. Lab. Med. 97(suppl.):77, 1968), resuspended in divalent-cation-free Tris-HCl-saline buffer, pH 7.4 at 5×10^7/ml and kept on ice until used. Neutrophils (2×10^5 cells/well) were allowed to adhere to 96-well plates in Iscov's Modified Medium for one hour at 37° C., in a humidified incubator with 5% CO2. The wells were then washed, and […] of fluoresceinated EAiC3b or EA (at 1.5×10^8/ml) were added in the presence of 3% BSA, in a total volume of […], followed by 15 min incubation at 37° C. with 5% CO2. Wells were then washed and fluorescence quantified as described above.
The ability of A7 to inhibit EAiC3b binding to CR3 (CD11b/CD18) expressed by normal human neutrophils was measured under conditions similar to those used in assessing EAiC3b binding to rA-domain. EAiC3b binding to neutrophils is primarily mediated by CR3, but can also occur in vitro through complement receptor type 1 (CR1). The effect of A7 on EAiC3b binding was tested in nearly isotonic conditions and in the presence of blocking concentrations of a polyclonal anti-CR1 antibody (Ross et al., J. Exp. Med. 158:334, 1983). […] These findings indicate that A7 is the major site in CR3 responsible for its interaction with iC3b.

CC[C@H](C)[C@H](NC(=O)[C@H](CCCCN)NC(=O)[C@H](Cc1ccccc1)NC(=O)[C@H](C)NC(=O)[C@@H](N)CC(N)=O)C(=O)N[C@@H](CC(C)C)C(=O)N[C@H](C(=O)N[C@H](C(=O)N[C@H](C(=O)N[C@H](C(=O)N[C@@H](CC(=O)O)C(=O)NCC(=O)N[C@@H](CCC(=O)O)C(=O)N[C@@H](CCCCN)C(=O)O)[C@@H](C)O)[C@@H](C)CC)C(C)C)C(C)C [A7] (H-NAFKILVVITDGEK-OH)
inhibition of NIF binding to immobilized r11bA by A-domain peptides [1]: inhibited binding of rNIF to rCD11b A-domain dramatically | direct binding of EAiC3b to immobilized protein or peptide ([2]; 37° C., divalent cations): bound EAiC3b directly, specifically and in a dose-dependent manner | EAiC3b binding to peptide on removal of divalent cations or inclusion of EDTA ([2]; no divalent cations or EDTA): not significantly altered | concentration giving complete inhibition of EAiC3b binding to the A-domain [3]: ≥ 50 mg/ml and ≥ 35 mM | reversibility of the inhibitory effect ([3]; A7-treated EAiC3b cells washed before addition to adsorbed rA-domain): reversible | binding of fluid-phase biotinylated peptide to EAiC3b (EAiC3b): bound directly and specifically | inhibition of CR3-dependent binding of EAiC3b to neutrophils ([4]; 140 mM): almost complete inhibition | inhibition of CR3-dependent binding of EAiC3b to neutrophils ([4]; with blocking polyclonal anti-CR1 antibody): significantly inhibited
